Measurements: doi:10.1101/238709
No constants are given. Whether binding was seen depends on the method and setting. Binding seen in cells or lysates may run through a third protein.

Amino acid sequences for entries named in this document (tags omitted). A change or cut given only in a name is not applied to a line headed by its entry.
UniProt Q05826: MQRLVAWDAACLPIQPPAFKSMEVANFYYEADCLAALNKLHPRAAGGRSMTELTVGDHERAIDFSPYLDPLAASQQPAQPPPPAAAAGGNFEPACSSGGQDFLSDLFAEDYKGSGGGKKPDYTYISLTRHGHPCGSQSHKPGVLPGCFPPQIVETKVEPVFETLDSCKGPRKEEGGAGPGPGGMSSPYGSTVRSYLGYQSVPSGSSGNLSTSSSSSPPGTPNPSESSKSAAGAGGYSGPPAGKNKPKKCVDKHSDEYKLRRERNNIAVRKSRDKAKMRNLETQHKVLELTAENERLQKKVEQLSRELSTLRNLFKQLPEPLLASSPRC
UniProt Q92830: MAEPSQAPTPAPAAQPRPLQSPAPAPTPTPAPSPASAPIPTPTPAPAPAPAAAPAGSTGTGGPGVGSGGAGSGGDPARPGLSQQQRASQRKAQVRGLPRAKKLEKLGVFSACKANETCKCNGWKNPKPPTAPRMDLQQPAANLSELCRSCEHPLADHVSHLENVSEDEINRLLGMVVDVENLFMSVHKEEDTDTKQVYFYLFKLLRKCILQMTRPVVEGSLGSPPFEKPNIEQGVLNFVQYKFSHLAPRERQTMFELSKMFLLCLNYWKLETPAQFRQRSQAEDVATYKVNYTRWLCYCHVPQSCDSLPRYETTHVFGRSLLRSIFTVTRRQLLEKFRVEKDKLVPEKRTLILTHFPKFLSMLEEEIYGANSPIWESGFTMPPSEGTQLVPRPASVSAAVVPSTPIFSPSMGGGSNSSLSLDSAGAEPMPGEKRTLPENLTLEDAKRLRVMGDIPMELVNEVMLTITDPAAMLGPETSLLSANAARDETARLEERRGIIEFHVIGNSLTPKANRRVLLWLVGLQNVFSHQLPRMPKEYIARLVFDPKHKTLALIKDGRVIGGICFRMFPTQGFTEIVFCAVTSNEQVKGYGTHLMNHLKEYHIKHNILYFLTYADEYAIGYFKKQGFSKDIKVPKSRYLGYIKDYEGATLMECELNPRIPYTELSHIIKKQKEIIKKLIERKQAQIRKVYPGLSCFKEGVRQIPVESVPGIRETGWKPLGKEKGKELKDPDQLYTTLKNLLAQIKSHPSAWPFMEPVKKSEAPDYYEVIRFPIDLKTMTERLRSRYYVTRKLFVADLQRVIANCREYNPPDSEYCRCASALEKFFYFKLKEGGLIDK

Target: LAP*Δ4,7 (UniProt Q05826)
Assay: co-IP

With “histone acetyltransferase GCN5 (from UniProt Q92830 1-837)” the binding was “no binding”.
